In the supplement of paper PMC10849652:
The other results are listed elsewhere or left out.

By UniProt entry, the sequences of proteins in these tests, tags left out. Where a name states a change or a piece, a line headed by the entry shows the natural chain unless it says otherwise.
UniProt O75746: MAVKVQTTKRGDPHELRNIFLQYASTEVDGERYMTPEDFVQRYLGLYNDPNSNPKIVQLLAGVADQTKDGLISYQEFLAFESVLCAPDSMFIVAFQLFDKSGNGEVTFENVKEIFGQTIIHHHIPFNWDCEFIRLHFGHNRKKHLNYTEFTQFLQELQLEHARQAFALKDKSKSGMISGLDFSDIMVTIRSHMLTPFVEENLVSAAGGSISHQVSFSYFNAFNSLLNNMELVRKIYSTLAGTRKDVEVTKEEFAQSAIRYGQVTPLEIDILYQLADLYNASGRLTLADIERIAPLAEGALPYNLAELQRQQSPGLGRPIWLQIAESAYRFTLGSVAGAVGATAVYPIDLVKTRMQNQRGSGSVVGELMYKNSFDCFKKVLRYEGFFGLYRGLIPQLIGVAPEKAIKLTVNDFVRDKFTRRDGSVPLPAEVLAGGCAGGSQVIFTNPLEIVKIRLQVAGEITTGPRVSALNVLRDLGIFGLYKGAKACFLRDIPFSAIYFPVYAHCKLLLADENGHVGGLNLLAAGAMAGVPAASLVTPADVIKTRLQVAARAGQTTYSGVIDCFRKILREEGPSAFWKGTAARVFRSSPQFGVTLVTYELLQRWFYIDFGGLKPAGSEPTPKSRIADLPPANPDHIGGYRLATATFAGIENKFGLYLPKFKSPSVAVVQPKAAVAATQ
UniProt Q96EP9: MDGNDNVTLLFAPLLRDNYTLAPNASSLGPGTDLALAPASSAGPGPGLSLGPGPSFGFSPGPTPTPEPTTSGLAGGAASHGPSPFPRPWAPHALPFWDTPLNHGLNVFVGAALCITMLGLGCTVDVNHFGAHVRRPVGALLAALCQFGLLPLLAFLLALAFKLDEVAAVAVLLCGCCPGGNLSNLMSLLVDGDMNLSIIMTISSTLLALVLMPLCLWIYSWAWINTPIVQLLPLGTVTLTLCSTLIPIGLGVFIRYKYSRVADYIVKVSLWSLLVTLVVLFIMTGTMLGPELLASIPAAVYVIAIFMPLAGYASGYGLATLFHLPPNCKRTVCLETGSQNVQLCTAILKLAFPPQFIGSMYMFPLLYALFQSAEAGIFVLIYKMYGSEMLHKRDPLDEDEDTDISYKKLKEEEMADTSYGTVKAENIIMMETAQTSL
UniProt Q8IWA5: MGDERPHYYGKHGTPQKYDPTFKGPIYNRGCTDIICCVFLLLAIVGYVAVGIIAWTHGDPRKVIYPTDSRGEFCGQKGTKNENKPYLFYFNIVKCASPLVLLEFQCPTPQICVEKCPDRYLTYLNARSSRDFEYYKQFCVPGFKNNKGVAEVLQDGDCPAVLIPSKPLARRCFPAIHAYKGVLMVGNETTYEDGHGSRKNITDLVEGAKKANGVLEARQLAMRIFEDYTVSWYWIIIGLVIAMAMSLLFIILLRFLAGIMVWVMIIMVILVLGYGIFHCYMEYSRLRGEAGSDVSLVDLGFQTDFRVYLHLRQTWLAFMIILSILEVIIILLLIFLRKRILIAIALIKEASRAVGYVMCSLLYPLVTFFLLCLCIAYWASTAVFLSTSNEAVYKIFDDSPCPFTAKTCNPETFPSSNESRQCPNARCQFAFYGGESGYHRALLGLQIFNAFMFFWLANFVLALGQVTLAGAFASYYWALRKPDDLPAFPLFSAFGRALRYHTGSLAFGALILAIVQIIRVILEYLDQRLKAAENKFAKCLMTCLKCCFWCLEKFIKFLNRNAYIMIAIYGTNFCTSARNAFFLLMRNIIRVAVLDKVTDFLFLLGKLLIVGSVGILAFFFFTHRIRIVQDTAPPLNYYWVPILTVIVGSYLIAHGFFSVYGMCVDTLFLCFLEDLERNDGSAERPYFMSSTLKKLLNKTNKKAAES
UniProt Q9H1U9: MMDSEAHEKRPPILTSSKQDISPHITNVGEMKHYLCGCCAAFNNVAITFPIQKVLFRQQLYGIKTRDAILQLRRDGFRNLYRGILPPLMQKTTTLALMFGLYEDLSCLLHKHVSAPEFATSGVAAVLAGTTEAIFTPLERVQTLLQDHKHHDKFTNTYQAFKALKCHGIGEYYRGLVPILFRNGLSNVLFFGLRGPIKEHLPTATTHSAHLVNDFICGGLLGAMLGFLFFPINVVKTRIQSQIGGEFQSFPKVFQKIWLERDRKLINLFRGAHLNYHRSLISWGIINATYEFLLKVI
UniProt Q96DW6: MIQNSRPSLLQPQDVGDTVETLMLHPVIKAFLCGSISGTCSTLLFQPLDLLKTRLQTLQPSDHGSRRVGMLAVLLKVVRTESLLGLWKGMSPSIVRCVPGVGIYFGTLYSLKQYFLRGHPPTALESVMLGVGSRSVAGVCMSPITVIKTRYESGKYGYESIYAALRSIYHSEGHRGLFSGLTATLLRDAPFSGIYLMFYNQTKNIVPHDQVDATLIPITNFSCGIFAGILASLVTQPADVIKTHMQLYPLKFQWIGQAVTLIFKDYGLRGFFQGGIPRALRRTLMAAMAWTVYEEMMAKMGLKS
UniProt P78383: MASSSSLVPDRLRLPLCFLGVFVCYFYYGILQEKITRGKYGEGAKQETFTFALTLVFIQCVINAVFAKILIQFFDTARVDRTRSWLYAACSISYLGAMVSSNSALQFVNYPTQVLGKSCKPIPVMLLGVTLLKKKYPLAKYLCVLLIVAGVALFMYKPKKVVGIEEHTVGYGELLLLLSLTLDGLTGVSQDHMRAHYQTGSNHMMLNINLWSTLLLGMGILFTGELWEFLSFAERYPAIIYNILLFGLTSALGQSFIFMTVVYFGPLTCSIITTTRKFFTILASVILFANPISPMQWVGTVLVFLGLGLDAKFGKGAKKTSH
UniProt Q9BQT8: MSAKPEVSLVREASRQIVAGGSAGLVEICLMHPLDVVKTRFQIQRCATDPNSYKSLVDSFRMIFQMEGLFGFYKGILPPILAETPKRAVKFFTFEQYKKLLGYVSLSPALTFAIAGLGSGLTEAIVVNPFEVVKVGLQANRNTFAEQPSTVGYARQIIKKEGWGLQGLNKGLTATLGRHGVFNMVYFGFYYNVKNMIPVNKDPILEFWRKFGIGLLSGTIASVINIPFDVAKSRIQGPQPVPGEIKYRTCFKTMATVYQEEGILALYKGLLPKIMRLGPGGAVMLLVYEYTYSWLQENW
UniProt Q96GZ6: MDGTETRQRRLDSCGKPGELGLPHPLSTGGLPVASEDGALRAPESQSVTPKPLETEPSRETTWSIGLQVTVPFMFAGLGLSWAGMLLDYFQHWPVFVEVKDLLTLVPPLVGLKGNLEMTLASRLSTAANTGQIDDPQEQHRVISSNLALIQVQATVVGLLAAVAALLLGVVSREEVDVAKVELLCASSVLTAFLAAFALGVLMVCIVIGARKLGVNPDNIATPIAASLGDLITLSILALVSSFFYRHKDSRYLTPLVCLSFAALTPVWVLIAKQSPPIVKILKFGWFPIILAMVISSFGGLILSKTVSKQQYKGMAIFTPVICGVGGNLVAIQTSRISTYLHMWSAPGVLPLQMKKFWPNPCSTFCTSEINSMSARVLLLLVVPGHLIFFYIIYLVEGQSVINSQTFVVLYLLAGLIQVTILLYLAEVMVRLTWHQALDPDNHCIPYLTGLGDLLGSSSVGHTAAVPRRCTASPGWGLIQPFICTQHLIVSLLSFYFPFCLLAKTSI
UniProt Q8IVJ1: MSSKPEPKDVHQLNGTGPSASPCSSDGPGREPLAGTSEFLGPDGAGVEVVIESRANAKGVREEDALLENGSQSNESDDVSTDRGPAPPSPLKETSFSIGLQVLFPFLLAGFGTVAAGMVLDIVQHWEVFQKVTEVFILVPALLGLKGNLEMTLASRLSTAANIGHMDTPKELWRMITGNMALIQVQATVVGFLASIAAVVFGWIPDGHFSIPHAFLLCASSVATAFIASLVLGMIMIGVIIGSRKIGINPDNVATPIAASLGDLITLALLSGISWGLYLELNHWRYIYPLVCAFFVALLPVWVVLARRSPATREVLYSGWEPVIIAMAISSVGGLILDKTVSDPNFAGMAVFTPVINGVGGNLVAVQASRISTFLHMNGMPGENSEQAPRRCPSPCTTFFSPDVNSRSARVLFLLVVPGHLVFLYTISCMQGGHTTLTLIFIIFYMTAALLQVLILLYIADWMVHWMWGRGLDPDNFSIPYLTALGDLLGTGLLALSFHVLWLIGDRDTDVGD
UniProt O60779: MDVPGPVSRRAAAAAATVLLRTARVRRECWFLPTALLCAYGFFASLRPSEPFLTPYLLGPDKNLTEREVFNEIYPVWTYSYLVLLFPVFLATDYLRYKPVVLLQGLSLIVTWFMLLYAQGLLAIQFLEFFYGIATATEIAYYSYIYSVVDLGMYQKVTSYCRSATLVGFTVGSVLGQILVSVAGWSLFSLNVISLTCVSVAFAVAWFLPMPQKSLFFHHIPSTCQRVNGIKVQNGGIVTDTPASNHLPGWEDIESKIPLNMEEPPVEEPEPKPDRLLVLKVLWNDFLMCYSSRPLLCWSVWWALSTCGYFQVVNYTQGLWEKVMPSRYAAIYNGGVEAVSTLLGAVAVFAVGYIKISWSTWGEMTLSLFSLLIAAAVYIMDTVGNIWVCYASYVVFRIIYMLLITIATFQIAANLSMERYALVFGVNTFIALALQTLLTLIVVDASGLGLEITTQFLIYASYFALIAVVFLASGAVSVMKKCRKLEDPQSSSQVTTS
UniProt P53985: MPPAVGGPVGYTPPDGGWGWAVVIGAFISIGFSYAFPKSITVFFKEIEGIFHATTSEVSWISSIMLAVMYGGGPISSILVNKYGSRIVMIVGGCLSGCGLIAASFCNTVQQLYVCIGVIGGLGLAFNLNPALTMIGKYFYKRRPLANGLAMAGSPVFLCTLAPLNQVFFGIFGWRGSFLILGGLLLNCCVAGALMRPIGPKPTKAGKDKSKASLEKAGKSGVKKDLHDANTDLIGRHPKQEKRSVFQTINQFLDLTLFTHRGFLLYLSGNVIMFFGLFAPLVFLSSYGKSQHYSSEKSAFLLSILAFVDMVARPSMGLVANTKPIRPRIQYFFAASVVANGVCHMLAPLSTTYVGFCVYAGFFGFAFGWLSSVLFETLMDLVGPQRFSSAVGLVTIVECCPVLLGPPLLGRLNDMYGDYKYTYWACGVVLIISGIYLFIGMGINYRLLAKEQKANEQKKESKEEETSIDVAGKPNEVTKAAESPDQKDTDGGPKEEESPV
UniProt Q9BWU0: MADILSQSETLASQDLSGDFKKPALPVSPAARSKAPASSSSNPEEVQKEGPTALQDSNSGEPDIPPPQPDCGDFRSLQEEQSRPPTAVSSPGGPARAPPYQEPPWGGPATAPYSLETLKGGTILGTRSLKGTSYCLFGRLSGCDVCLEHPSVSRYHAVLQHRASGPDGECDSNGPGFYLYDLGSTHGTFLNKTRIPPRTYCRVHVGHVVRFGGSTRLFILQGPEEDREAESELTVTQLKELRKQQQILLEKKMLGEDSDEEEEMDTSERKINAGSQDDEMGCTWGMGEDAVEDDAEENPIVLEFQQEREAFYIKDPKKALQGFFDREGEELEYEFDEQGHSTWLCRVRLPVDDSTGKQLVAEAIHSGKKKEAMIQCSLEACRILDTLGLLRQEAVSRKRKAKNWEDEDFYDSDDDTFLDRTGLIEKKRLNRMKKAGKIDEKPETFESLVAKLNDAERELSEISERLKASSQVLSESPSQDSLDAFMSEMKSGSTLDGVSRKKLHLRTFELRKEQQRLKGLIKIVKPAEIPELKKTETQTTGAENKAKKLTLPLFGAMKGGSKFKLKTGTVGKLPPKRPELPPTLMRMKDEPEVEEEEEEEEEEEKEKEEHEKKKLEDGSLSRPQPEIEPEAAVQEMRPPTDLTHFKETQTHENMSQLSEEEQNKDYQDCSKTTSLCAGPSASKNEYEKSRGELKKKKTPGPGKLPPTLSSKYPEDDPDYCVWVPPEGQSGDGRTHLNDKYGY
UniProt Q9BXS9: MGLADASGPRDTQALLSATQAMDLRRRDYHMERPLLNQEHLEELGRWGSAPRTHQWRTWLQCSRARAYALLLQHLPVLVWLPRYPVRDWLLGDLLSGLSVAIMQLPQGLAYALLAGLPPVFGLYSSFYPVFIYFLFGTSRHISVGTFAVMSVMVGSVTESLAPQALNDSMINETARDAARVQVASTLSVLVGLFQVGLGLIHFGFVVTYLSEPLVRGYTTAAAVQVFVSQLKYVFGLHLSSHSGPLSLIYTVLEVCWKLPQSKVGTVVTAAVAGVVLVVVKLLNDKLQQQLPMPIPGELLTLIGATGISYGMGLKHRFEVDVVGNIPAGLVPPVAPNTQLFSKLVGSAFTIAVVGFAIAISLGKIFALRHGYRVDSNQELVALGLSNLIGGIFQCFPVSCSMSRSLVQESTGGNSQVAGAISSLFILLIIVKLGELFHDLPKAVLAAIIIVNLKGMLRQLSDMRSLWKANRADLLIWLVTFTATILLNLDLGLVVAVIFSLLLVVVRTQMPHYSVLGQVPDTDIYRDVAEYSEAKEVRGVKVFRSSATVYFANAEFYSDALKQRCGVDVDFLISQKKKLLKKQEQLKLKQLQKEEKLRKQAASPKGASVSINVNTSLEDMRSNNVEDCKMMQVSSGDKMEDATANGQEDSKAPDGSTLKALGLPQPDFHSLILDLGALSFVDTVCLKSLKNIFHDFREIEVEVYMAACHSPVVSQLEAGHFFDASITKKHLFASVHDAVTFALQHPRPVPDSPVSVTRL

How the values were obtained:
Assay in all cases: log2 fold change, soluble protein after heating vs DMSO (PISA); higher = thermal stabilisation; K562 cells, 10 uM, 30 min; active = over 0.2 and 3.5 SD of the protein, either way, in both replicates (recomputed)
[1] = compound: COC1=CC=C(C=C1)CN2C=CC3=C2C=C(C=C3)C(=O)NO
Summary of the method: (§1)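 K562 cells at 2×10^6 cells/mL were given 10 μM compound for 30 min. Aliquots then went through 3 min of heating across 48°C-58°C, were pooled, and were extracted in PBS with 0.5% NP-40 at 4°C, and the supernatant after 21,000xg for 90 min was quantified by TMTpro 16plex LC-MS/MS with channel sums equalised. Thermal stability relative to control samples, from duplicates, is given as log2 fold change.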

[2] = compound: CON(C)C(=O)N1N=C(c2cc(F)ccc2F)S[C@@]1(CCCN)c1ccccc1 [filanesib]
Summary of the method: as §1

[3] = compound: COc1cc2ncnc(Nc3ccc(F)c(Cl)c3)c2cc1OCCCN1CCOCC1 [gefitinib]
Summary of the method: as §1

[4] = compound: CO[C@H]1C[C@@H]2CC[C@@H](C)[C@@](O)(O2)C(=O)C(=O)N2CCCC[C@H]2C(=O)O[C@H]([C@H](C)C[C@@H]2CC[C@H](n3cnnn3)[C@H](OC)C2)CC(=O)[C@H](C)/C=C(\C)[C@@H](O)[C@@H](OC)C(=O)[C@H](C)C[C@H](C)/C=C/C=C/C=C/1C [zotarolimus]
Summary of the method: as §1

[5] = compound: COc1cc(C(=O)O)ccc1NC(=O)[C@@H]1N[C@@H](CC(C)(C)C)[C@](C#N)(c2ccc(Cl)cc2F)[C@H]1c1cccc(Cl)c1F [idasanutlin]
Summary of the method: as §1

[6] = compound: COc1cc(Nc2ncc3c(n2)-c2ccc(Cl)cc2C(c2c(F)cccc2OC)=NC3)ccc1C(=O)O [alisertib]
Summary of the method: as §1

[7] = compound: COc1cc2nc(-c3cc(F)ccc3O)nc(N[C@@H]3CNC[C@H]3C(C)(C)O)c2cc1OC
Summary of the method: as §1

[8] = compound: COc1cccc2cc(-c3nc([C@H]4CC[C@H](C(=O)O)CC4)n4ncnc(N)c34)[nH]c12
Summary of the method: as §1

[9] = compound: CS(=O)(=O)CCNCc1ccc(-c2ccc3ncnc(Nc4ccc(OCc5cccc(F)c5)c(Cl)c4)c3c2)o1 [lapatinib]
Summary of the method: as §1

[10] = compound: CS(=O)(=O)N1CCN(Cc2cc3nc(-c4cccc5[nH]ncc45)nc(N4CCOCC4)c3s2)CC1 [pictilisib]
Summary of the method: as §1

Measured: log2 fold change

SLC23A2 (UniProt Q9UGH3)
inactive: [1] -0.112 | [2] 0.105 | [3] -0.13

SLC25A12 (UniProt O75746)
inactive: [1] -0.01 | [2] -0.023 | [4] -0.025 | [5] -0.019 | [6] 0.084 | [7] 0.025 | [3] 0.003 | [8] 0.038 | [9] 0.009 | [10] 0.009

SLC12A4 (UniProt Q9UP95)
inactive: [1] 0.116 | [2] -0.066 | [4] -0.012 | [5] 0.021 | [6] -0.032 | [7] -0.002 | [3] 0.017 | [8] 0.021 | [9] 0.002 | [10] 0.103

SLC25A42 (UniProt Q86VD7)
active: [1] 0.241
inactive: [2] -0.011 | [4] 0.058 | [5] 0.047 | [6] 0.012 | [7] -0.029 | [3] 0.063 | [8] 0.043 | [9] 0.084 | [10] -0.003

SLC10A4 (UniProt Q96EP9)
inactive: [1] -0.325 | [2] 0.085 | [4] -0.006 | [5] 0.041 | [6] -0.022 | [7] 0.086 | [3] -0.119 | [8] 0.252 | [9] -0.177 | [10] -0.039

SLC6A9 (UniProt P48067)
inactive: [1] -0.18 | [2] 0.041 | [4] -0.048 | [5] -0.101 | [6] -0.045 | [7] 0.053 | [3] 0.002 | [8] 0.068 | [9] -0.103 | [10] 0.163

SLC17A5 (UniProt Q9NRA2)
inactive: [1] -0.037 | [2] -0.165 | [5] 0.052 | [7] -0.045 | [9] 0.114

SLC25A10 isoform 2 (UniProt Q9UBX3)
inactive: [1] 0.055 | [2] 0.009 | [4] -0.033 | [5] -0.002 | [6] -0.055 | [7] -0.022 | [3] -0.015 | [8] 0.015 | [9] 0.049 | [10] -0.057

SLC44A2 isoform 2 (UniProt Q8IWA5)
inactive: [1] 0.018 | [2] 0.048 | [4] -0.028 | [5] 0.026 | [6] -0.118 | [3] 0.002 | [8] 0.057 | [10] 0.13

SLC25A51 (UniProt Q9H1U9)
inactive: [1] -0.06 | [2] -0.06 | [4] 0.003 | [5] -0.014 | [6] -0.027 | [7] 0.012 | [3] -0.005 | [8] 0.077 | [9] 0 | [10] 0.013

SLC25A38 (UniProt Q96DW6)
inactive: [1] -0.013 | [2] -0.01 | [4] -0.029 | [5] -0.069 | [6] -0.049 | [7] 0.039 | [3] 0.013 | [9] -0.02 | [10] 0.04
active: [8] 0.447

SLC35B1 isoform 2 (UniProt P78383)
inactive: [1] -0.106 | [2] -0.037 | [4] -0.005 | [6] -0.232 | [3] -0.022 | [8] 0.129

SLC25A21 (UniProt Q9BQT8)
inactive: [1] -0.062 | [2] -0.076 | [4] -0.055 | [5] -0.007 | [6] -0.059 | [7] -0.004 | [3] 0.017 | [8] 0.101 | [9] -0.016 | [10] 0.001

SLC25A1 (UniProt P53007)
inactive: [1] 0.035 | [2] 0.015 | [4] -0.01 | [5] -0.049 | [6] -0.089 | [7] -0.051 | [3] -0.002 | [8] 0.03 | [9] 0.009 | [10] -0.122

SLC41A3 isoform 9 (UniProt Q96GZ6)
inactive: [1] -0.011 | [2] -0.044 | [5] 0.112 | [6] 0.069 | [3] -0.037 | [8] 0.246 | [10] 0.097

SLC25A30 (UniProt Q5SVS4)
inactive: [1] -0.143 | [2] 0.023 | [4] -0.036 | [5] 0.093 | [7] 0.137 | [3] 0.029 | [9] -0.114 | [10] -0.047

SLC35B4 (UniProt Q969S0)
inactive: [1] -0.076 | [2] -0.119 | [5] 0.027 | [6] 0.032 | [3] 0.149 | [8] 0.076

SLC41A1 (UniProt Q8IVJ1)
inactive: [1] 0.541 | [2] -0.256 | [6] -0.029 | [7] -0.289 | [3] 0.208 | [8] 0.011 | [9] 0.427 | [10] -0.119

SLC25A14 isoform 3 (UniProt O95258)
inactive: [1] 0.002 | [4] 0.086 | [5] -0.111 | [6] 0.116 | [7] 0.009 | [3] 0.109 | [8] 0.106 | [9] -0.006 | [10] 0.071

SLC35B2 (UniProt Q8TB61)
inactive: [1] 0.004 | [2] -0.021 | [4] -0.009 | [5] -0.034 | [6] -0.065 | [7] -0.004 | [3] 0.021 | [8] 0.053 | [9] 0.06 | [10] 0.001

SLC4A1 (UniProt P02730)
inactive: [1] -0.051 | [2] 0.001 | [4] -0.03 | [5] 0.051 | [6] -0.114 | [7] 0.149 | [3] 0.021 | [8] 0.053 | [9] 0.003 | [10] 0.028

SLC35E2B (UniProt P0CK96)
inactive: [1] 0.101 | [2] 0.021 | [4] -0.151 | [6] -0.071 | [7] 0.005 | [8] -0.027 | [9] 0.08

SLC19A2 (UniProt O60779)
inactive: [1] -0.214 | [2] -0.073 | [4] 0.072 | [5] 0.019 | [7] 0.032 | [3] 0.083 | [9] -0.043

SLC30A10 (UniProt Q6XR72)
inactive: [1] 0.06 | [2] 0.032 | [4] -0.02 | [5] 0.005 | [6] -0.12 | [7] 0.003 | [3] 0.095 | [8] 0.032 | [9] 0.001 | [10] 0.095

SLC16A1 (UniProt P53985)
inactive: [1] -0.074 | [2] 0.064 | [4] -0.031 | [5] 0 | [6] -0.05 | [7] 0.064 | [3] 0.028 | [8] 0.146 | [9] -0.046 | [10] -0.009

SLC4A1AP (UniProt Q9BWU0)
inactive: [1] 0.014 | [2] 0.081 | [4] -0.011 | [5] 0.006 | [6] -0.028 | [7] 0.111 | [3] 0.022 | [8] -0.053 | [9] -0.03 | [10] -0.011

SLC26A6 (UniProt Q9BXS9)
inactive: [1] -0.011 | [2] 0.081 | [4] -0.029 | [5] 0.089 | [6] -0.057 | [7] 0.015 | [3] 0.098 | [8] 0.128 | [9] 0.015 | [10] 0.209

SLC27A2 (UniProt O14975)
inactive: [1] 0.089 | [2] -0.033 | [4] 0.032 | [5] 0.257 | [6] -0.034 | [7] 0.046 | [3] 0.156 | [8] -0.052 | [9] 0.112 | [10] 0.034

Quoted at random: two records from the list, in no set order.
SLC30A10 (UniProt Q6XR72)
inactive: [1] 0.06 | [2] 0.032 | [4] -0.02 | [5] 0.005 | [6] -0.12 | [7] 0.003 | [3] 0.095 | [8] 0.032 | [9] 0.001 | [10] 0.095

SLC27A2 (UniProt O14975)
inactive: [1] 0.089 | [2] -0.033 | [4] 0.032 | [5] 0.257 | [6] -0.034 | [7] 0.046 | [3] 0.156 | [8] -0.052 | [9] 0.112 | [10] 0.034
